Measured values from paper PMC9033787.
These are yes or no findings as the source states them, for the method shown. Binding seen in cells or lysates may run through a third protein. Some results given as binding are weak or reduced against the parent protein; the word gives no strength.

By UniProt entry, the sequences of proteins in these tests, tags left out.
UniProt P70340: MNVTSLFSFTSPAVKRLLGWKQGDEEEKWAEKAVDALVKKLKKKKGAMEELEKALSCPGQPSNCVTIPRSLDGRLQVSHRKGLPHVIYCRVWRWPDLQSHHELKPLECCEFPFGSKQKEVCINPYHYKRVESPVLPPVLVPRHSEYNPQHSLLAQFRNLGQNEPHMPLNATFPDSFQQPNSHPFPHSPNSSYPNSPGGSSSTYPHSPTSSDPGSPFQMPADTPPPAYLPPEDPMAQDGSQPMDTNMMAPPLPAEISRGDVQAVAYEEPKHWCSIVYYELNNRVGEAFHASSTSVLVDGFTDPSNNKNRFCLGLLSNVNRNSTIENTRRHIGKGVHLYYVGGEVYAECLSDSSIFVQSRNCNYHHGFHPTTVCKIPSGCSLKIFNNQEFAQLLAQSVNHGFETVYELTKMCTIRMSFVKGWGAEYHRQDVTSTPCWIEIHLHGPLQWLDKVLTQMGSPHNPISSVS
UniProt P97471: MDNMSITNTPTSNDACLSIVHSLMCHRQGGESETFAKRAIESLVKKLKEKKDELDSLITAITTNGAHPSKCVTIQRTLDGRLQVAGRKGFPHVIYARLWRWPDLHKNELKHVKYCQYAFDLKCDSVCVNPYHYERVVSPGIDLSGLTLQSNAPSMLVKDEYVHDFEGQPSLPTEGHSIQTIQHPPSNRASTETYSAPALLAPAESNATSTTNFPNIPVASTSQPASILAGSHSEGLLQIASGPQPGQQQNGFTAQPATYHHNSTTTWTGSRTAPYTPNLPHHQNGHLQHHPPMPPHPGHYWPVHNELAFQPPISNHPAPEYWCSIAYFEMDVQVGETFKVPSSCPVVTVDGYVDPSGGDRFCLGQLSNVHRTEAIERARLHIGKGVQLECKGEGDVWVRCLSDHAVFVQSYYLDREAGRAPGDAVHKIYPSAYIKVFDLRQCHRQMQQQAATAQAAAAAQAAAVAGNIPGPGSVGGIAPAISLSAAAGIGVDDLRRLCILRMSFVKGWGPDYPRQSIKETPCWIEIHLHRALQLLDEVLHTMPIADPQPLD

T1: TGF-β-activated kinase 1 (TAK1) (mouse (endogenous in GA muscle)) (UniProt Q62073)
T1 sequence: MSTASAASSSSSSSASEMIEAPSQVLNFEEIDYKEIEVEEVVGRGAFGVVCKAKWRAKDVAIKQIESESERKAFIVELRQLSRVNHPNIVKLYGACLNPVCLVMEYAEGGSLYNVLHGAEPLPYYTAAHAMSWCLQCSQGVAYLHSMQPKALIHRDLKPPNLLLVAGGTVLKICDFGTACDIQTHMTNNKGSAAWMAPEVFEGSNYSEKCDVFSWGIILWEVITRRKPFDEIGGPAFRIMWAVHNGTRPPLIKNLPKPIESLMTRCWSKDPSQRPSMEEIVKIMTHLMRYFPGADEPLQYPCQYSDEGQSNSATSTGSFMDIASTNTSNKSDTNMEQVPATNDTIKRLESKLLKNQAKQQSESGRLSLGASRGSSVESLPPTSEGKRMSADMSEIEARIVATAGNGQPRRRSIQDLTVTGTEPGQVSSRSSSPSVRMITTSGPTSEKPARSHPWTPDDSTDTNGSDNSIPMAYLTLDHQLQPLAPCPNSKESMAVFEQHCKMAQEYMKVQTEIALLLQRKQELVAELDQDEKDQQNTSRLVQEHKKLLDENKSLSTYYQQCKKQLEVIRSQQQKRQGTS


Experiments:
[1] = molecular target: T1, TGF-β-activated kinase 1 (TAK1) (mouse (endogenous in GA muscle)); test: co-IP; GA muscle extracts of sham-operated or 7d-denervated C57BL/6 mice; 700 µg protein extract incubated overnight at 4 °C with primary antibody against TAK1 or Smad1 in 700 µl lysis buffer free of DTT; collected on Protein A/G Sepharose beads; immunoblot
[2] = molecular target: Smad1 (mouse (endogenous in GA muscle)) (UniProt P70340); test: as above

Molecule | binding [1] | binding [2]
Smad1 (from UniProt P70340 1-465) | binds | 
Smad4 (from UniProt P97471 1-551) | no binding | 
TGF-β-activated kinase 1 (TAK1) (enzyme, UniProt Q62073 1-579) MSTASAASSSSSSSASEMIEAPSQVLNFEEIDYKEIEVEEVVGRGAFGVVCKAKWRAKDVAIKQIESESERKAFIVELRQLSRVNHPNIVKLYGACLNPVCLVMEYAEGGSLYNVLHGAEPLPYYTAAHAMSWCLQCSQGVAYLHSMQPKALIHRDLKPPNLLLVAGGTVLKICDFGTACDIQTHMTNNKGSAAWMAPEVFEGSNYSEKCDVFSWGIILWEVITRRKPFDEIGGPAFRIMWAVHNGTRPPLIKNLPKPIESLMTRCWSKDPSQRPSMEEIVKIMTHLMRYFPGADEPLQYPCQYSDEGQSNSATSTGSFMDIASTNTSNKSDTNMEQVPATNDTIKRLESKLLKNQAKQQSESGRLSLGASRGSSVESLPPTSEGKRMSADMSEIEARIVATAGNGQPRRRSIQDLTVTGTEPGQVSSRSSSPSVRMITTSGPTSEKPARSHPWTPDDSTDTNGSDNSIPMAYLTLDHQLQPLAPCPNSKESMAVFEQHCKMAQEYMKVQTEIALLLQRKQELVAELDQDEKDQQNTSRLVQEHKKLLDENKSLSTYYQQCKKQLEVIRSQQQKRQGTS |  | binds
